# Results are given in words; binding and its absence hold for the method and conditions named. In cells and extracts the contact can be indirect. Some binding calls cover weakened binding; strength is not graded here.
# Protein sequences, listed by entry. Tags and fused reporters are not part of them.
# UniProt Q04207: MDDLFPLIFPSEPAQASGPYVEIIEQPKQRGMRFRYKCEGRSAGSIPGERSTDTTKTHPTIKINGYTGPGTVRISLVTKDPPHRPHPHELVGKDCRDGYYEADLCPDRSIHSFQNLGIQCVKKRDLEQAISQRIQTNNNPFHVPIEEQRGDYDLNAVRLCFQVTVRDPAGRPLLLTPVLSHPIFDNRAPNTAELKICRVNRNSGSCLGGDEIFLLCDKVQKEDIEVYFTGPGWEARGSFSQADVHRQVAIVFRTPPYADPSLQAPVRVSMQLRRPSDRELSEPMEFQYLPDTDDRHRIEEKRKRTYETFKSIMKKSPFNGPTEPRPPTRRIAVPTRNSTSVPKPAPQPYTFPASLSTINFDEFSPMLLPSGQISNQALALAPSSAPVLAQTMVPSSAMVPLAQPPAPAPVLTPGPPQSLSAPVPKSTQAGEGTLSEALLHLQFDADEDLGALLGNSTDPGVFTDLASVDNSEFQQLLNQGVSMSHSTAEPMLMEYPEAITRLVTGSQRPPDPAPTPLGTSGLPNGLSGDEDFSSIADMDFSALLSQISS
# T1: Activating transcription factor 3 (mouse (endogenous in RAW 264.7)) (UniProt Q60765)
# T1 sequence: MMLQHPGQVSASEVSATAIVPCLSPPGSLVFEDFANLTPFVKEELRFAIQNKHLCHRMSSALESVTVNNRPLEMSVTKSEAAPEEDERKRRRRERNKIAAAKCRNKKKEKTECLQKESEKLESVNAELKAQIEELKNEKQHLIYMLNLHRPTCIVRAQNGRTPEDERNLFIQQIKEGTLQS
# Key:
# [1] = target: T1, Activating transcription factor 3 (mouse (endogenous in RAW 264.7)); assay: co-IP; anti-ATF3 antibody on agarose beads; RAW 264.7 cells treated with 1 μg/mL LPS for the indicated times; whole-cell lysates; Western blot
# [2] = target: p65 subunit of nuclear factor κB (NF-κB) (mouse (endogenous in RAW 264.7)) (UniProt Q04207); assay: co-IP; anti-p65 antibody on agarose beads; RAW 264.7 cells treated with 1 μg/mL LPS for the indicated times (also cells with scrambled siRNA); whole-cell lysates; Western blot
Molecule,binding [1],binding [2]
p65 subunit of nuclear factor κB (NF-κB) (from UniProt Q04207 1-549),binds,–
"Activating transcription factor 3 (protein, UniProt Q60765 1-181) MMLQHPGQVSASEVSATAIVPCLSPPGSLVFEDFANLTPFVKEELRFAIQNKHLCHRMSSALESVTVNNRPLEMSVTKSEAAPEEDERKRRRRERNKIAAAKCRNKKKEKTECLQKESEKLESVNAELKAQIEELKNEKQHLIYMLNLHRPTCIVRAQNGRTPEDERNLFIQQIKEGTLQS",–,binds

# — paper PMC4585983
